Results deposited as PubChem BioAssay AID1508587 (Peter MacCallum Cancer Centre, 2020).

Aim: 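Retest of knockdowns boosting BRAF inhibitor action on lactate release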 (follow-up of hits)
Cell system: human WM266.4 melanoma cells with a BRAF V600 mutation
Reagent: single siRNA against human genes, 25 nM
Time to read-out: 96 h
Conditions: vemurafenib 300 nM (about IC25), given 48 h after transfection for 48 h
Read-out: 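Medium lactate read by absorbance over DAPI-counted nuclei; ratio with versus without vemurafenib, set against non-targeting siRNA, averaged over 2 replicates; cell number also recorded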
Scale: lactate per cell, drug vs no drug: higher = less drug-induced drop in lactate per cell; lactate per cell with vemurafenib: higher = more lactate per cell under drug; lactate per cell without drug: higher = more lactate per cell without drug; cell growth with vemurafenib and cell growth without drug: higher = more cell growth over 48 h
Active means: 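a duplex is active when its lactate-per-cell ratio with versus without drug falls under 0.55, i.e. 2 SD below non-targeting; a gene is confirmed if 2 or more of 4 duplexes pass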
Here is an unselected part of about 1,600 deposited reagents. 623 of all reagents (39%) were called active. 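Calls are for each duplex; lactate ratios contain extreme outliers.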 Entries without a mark were called inactive. The numbers tell different reagents against one gene apart.

| Gene | reagent no. | lactate per cell, drug vs no drug | lactate per cell with vemurafenib | lactate per cell without drug | cell growth with vemurafenib | cell growth without drug |
| --- | --- | --- | --- | --- | --- | --- |
| ALG2 (ALG2 alpha-1,3/1,6-mannosyltransferase) | 1 | 0.66 | 1.16 | 1.15 | 0.66 | 0.73 |
| ALG2 (ALG2 alpha-1,3/1,6-mannosyltransferase) | 2 | 0.44 (active) | 0.88 | 1.35 | 0.3 | 0.25 |
| ALG2 (ALG2 alpha-1,3/1,6-mannosyltransferase) | 3 | 0.48 (active) | 0.71 | 0.95 | 1.33 | 0.83 |
| ALG2 (ALG2 alpha-1,3/1,6-mannosyltransferase) | 4 | 0.51 (active) | 0.97 | 1.23 | 0.26 | 0.37 |
| SCHIP1 (schwannomin interacting protein 1) | 1 | 0.44 (active) | 2.54 | 4.81 | 0.4 | 0 |
| SCHIP1 (schwannomin interacting protein 1) | 2 | 0.5 (active) | 0.64 | 0.77 | 0.35 | 0.55 |
| SCHIP1 (schwannomin interacting protein 1) | 3 | 0.41 (active) | 0.82 | 1.31 | 0.23 | 0.16 |
| SCHIP1 (schwannomin interacting protein 1) | 4 | 0.62 | 1.04 | 1.04 | 0.72 | 0.84 |
| ALK (ALK receptor tyrosine kinase) | 1 | 0.69 | 1.23 | 1.13 | 0.56 | 0.54 |
| ALK (ALK receptor tyrosine kinase) | 2 | 0.7 | 1.36 | 1.23 | 0.73 | 0.68 |
| ALK (ALK receptor tyrosine kinase) | 3 | 0.7 | 1.44 | 1.29 | 0.02 | 0.26 |
| ALK (ALK receptor tyrosine kinase) | 4 | 0.54 (active) | 0.86 | 1 | 0.2 | 0.5 |
| LEAP2 (liver enriched antimicrobial peptide 2) | 1 | 0.82 | 5.56 | 4.25 | -0.11 | -0.05 |
| LEAP2 (liver enriched antimicrobial peptide 2) | 2 | 0.59 | 1.02 | 1.08 | 0.88 | 0.9 |
| LEAP2 (liver enriched antimicrobial peptide 2) | 3 | 0.6 | 1.69 | 1.79 | 0.3 | 0.24 |
| LEAP2 (liver enriched antimicrobial peptide 2) | 4 | 0.7 | 0.94 | 0.85 | 1.08 | 1.17 |
| ANKRD50 (ankyrin repeat domain 50) | 1 | 0.59 | 1.46 | 1.53 | 0.18 | 0.23 |
| ANKRD50 (ankyrin repeat domain 50) | 2 | 0.48 (active) | 0.76 | 0.98 | 0.34 | 0.42 |
| ANKRD50 (ankyrin repeat domain 50) | 3 | 0.46 (active) | 0.77 | 1.04 | -0.13 | 0.06 |
| ANKRD50 (ankyrin repeat domain 50) | 4 | 0.47 (active) | 0.87 | 1.14 | 0.23 | 0.26 |
| RHO (rhodopsin) | 1 | 0.58 | 1.05 | 1.15 | 0.91 | 0.85 |
| RHO (rhodopsin) | 2 | 0.6 | 1.66 | 1.77 | 0.56 | 0.41 |
| RHO (rhodopsin) | 3 | 0.64 | 2.04 | 2.04 | 0.11 | 0.07 |
| RHO (rhodopsin) | 4 | 0.44 (active) | 0.5 | 0.7 | 0.56 | 0.85 |
| AAK1 (AP2 associated kinase 1) | 1 | 0.81 | 1.81 | 1.42 | 0.29 | 0.49 |
| AAK1 (AP2 associated kinase 1) | 2 | 0.32 (active) | 0.41 | 0.87 | 0.13 | 0.4 |
| AAK1 (AP2 associated kinase 1) | 3 | 0.47 (active) | 0.84 | 1.12 | 0.8 | 0.51 |
| AAK1 (AP2 associated kinase 1) | 4 | 0.76 | 1.08 | 0.92 | 0.28 | 0.5 |
| ARHGAP24 (Rho GTPase activating protein 24) | 1 | 0.46 (active) | 0.94 | 1.26 | 0.65 | 0.5 |
| ARHGAP24 (Rho GTPase activating protein 24) | 2 | 0.5 (active) | 0.91 | 1.12 | 0.77 | 0.65 |
| ARHGAP24 (Rho GTPase activating protein 24) | 3 | 0.31 (active) | 0.44 | 0.92 | 0.78 | 0.6 |
| ARHGAP24 (Rho GTPase activating protein 24) | 4 | 0.32 (active) | 0.64 | 1.3 | 0.26 | 0.41 |
| ANAPC1 (anaphase promoting complex subunit 1) | 1 | 0.5 (active) | 1.26 | 1.6 | 0.36 | 0.36 |
| ANAPC1 (anaphase promoting complex subunit 1) | 2 | 0.62 | 1.45 | 1.46 | 0.58 | 0.57 |
| ANAPC1 (anaphase promoting complex subunit 1) | 3 | 0.38 (active) | 0.52 | 0.87 | 0.65 | 0.78 |
| ANAPC1 (anaphase promoting complex subunit 1) | 4 | 0.58 | 1.01 | 1.09 | 0.75 | 0.79 |
| MAP2K7 (mitogen-activated protein kinase kinase 7) | 1 | 0.57 | 2.17 | 2.53 | 0.06 | 0.06 |
| MAP2K7 (mitogen-activated protein kinase kinase 7) | 2 | 0.62 | 1.16 | 1.19 | 0.24 | 0.32 |
| MAP2K7 (mitogen-activated protein kinase kinase 7) | 3 | 0.79 | 1.48 | 1.18 | 0.34 | 0.45 |
| MAP2K7 (mitogen-activated protein kinase kinase 7) | 4 | 0.56 | 0.64 | 0.73 | 0.84 | 1.41 |
| KTI12 (KTI12 chromatin associated homolog) | 1 | 0.69 | 0.96 | 0.96 | 1.18 | 1.4 |
| KTI12 (KTI12 chromatin associated homolog) | 2 | 0.46 (active) | 1.27 | 1.88 | -0.12 | -0.11 |
| KTI12 (KTI12 chromatin associated homolog) | 3 | 0.56 | 1.15 | 1.4 | 0.7 | 0.5 |
| KTI12 (KTI12 chromatin associated homolog) | 4 | 0.56 | 1.08 | 1.32 | 0.91 | 0.59 |
| AKAP12 (A-kinase anchoring protein 12) | 1 | 0.64 | 1.47 | 1.57 | 0.08 | 0.23 |
| AKAP12 (A-kinase anchoring protein 12) | 2 | 0.53 (active) | 1.1 | 1.37 | 0.58 | 0.49 |
| AKAP12 (A-kinase anchoring protein 12) | 3 | 0.55 | 1.07 | 1.27 | 0.64 | 0.68 |
| AKAP12 (A-kinase anchoring protein 12) | 4 | 0.54 (active) | 0.76 | 0.91 | 0.13 | 0.28 |
| TCN2 (transcobalamin 2) | 1 | 0.51 (active) | 1.52 | 1.76 | 0.59 | 0.35 |
| TCN2 (transcobalamin 2) | 2 | 0.53 (active) | 0.79 | 0.88 | 0.76 | 0.83 |
| TCN2 (transcobalamin 2) | 3 | 0.25 (active) | 0.35 | 0.86 | 0.24 | 0.3 |
| TCN2 (transcobalamin 2) | 4 | 0.51 (active) | 1.47 | 1.73 | 0.48 | 0.31 |
| PDCD6IP (programmed cell death 6 interacting protein) | 1 | 0.68 | 1.27 | 1.21 | 0.83 | 0.64 |
| PDCD6IP (programmed cell death 6 interacting protein) | 2 | 0.48 (active) | 1.14 | 1.49 | 0.35 | 0.24 |
| PDCD6IP (programmed cell death 6 interacting protein) | 3 | 0.42 (active) | 2.81 | 4.19 | -0.02 | -0.07 |
| PDCD6IP (programmed cell death 6 interacting protein) | 4 | 0.84 | 1.38 | 1.02 | 0.05 | 0.23 |
| LRRN4 (leucine rich repeat neuronal 4) | 1 | 0.22 (active) | 0.15 | 0.42 | 0.31 | 0.94 |
| LRRN4 (leucine rich repeat neuronal 4) | 2 | 0.45 (active) | 1.29 | 1.76 | 0.84 | 0.34 |
| LRRN4 (leucine rich repeat neuronal 4) | 3 | 0.64 | 2.48 | 2.4 | 0.44 | 0.25 |
| LRRN4 (leucine rich repeat neuronal 4) | 4 | 0.44 (active) | 1.14 | 1.9 | -0.01 | 0.02 |
| MTO1 (mitochondrial tRNA translation optimization 1) | 1 | 0.56 | 1.63 | 1.91 | 0.05 | 0.01 |
| MTO1 (mitochondrial tRNA translation optimization 1) | 2 | 0.62 | 0.96 | 1 | 1.07 | 1.18 |
| MTO1 (mitochondrial tRNA translation optimization 1) | 3 | 0.52 (active) | 0.62 | 0.76 | 0.41 | 0.88 |
| MTO1 (mitochondrial tRNA translation optimization 1) | 4 | 0.44 (active) | 1.06 | 1.58 | 0.91 | 0.41 |

Sorted by “cell growth without drug” (ascending): 3 of the entries above
| Gene | reagent no. | lactate per cell, drug vs no drug | lactate per cell with vemurafenib | lactate per cell without drug | cell growth with vemurafenib | cell growth without drug |
| --- | --- | --- | --- | --- | --- | --- |
| RHO (rhodopsin) | 3 | 0.64 | 2.04 | 2.04 | 0.11 | 0.07 |
| RHO (rhodopsin) | 2 | 0.6 | 1.66 | 1.77 | 0.56 | 0.41 |
| RHO (rhodopsin) | 4 | 0.44 (active) | 0.5 | 0.7 | 0.56 | 0.85 |
